Primary screen of a compound library

The values are deposited in ChEMBL (CHEMBL3988442, “University of Dundee, Small-Polar-MMV Screening Library” (2021)).

A: 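Growth of Mycobacterium tuberculosis over 4 days (cholesterol / DPPC medium with tyloxapol); the read-out is not stated. Compounds at 500 µM. Direction is inferred from retests: higher values go with more growth inhibition. Size under these conditions: about 18,000 compounds, about 900 of them at 50% or above in at least one test.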
B: 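Growth of Mycobacterium tuberculosis over 3 days (7H9 medium with glucose and tyloxapol); the read-out is not stated. Concentration: 500 µM. Direction is inferred from retests: higher values go with more growth inhibition. Size under these conditions: about 18,000 compounds, about 1,400 of them at 50% or above in at least one test.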

Results are given as percent effect.
The record does not define 0% and 100%; most values in the screen are far below 50% and negative numbers occur (in some assays of this library far below -100).
This is an unselected part of the compounds tested.

structure	A	B
CCOc1ccc(C(=O)Nc2ccnc(C)c2)cn1	36.09	55.11
CN1CCCN(C(=O)c2ccco2)c2ccccc21	65.22	76.44
CCN(CC)C(=O)CSc1nnnn1C1CCOCC1	4.074	15.66
Cc1ccccc1C(C)NC(=O)CN1CSCC1=O (centres unmarked)	-12.14	6.122
O=C(Cc1ccc(F)cc1F)NCC1CCNCC1	-9.195	-2.014
COc1ccc(F)c(-c2cccc(C(=O)N(C)C)n2)c1	15.6	15.41
CCOCCCC(=O)NCC(O)Cc1ccccc1 (centres unmarked)	8.79	26.19
O=S(=O)(Cc1ccc(Cl)cc1Cl)CC(O)CO (centres unmarked)	3.219	27.8
CC(C)c1noc(OCC(=O)NC(C)(C#N)C(C)C)n1 (centres unmarked)	-2.277	10.2
NCC1(CO)COC1	33.32	7.91
COc1cccc(CNC2CC(=O)N(C)C2)c1OC (centres unmarked)	10.54	2.963
COc1ccc(C2=NOC(C(=O)NC(C)C)C2)cc1 (centres unmarked)	6.842	3.415
O=C(NCC1CCS(=O)(=O)C1)c1cnccn1 (centres unmarked)	-22.02	-2.282
Cc1oc(C)c(C(=O)NCCCN(C)S(C)(=O)=O)c1C	-14.81	3.931
CCc1nnc(N2CCN(S(C)(=O)=O)CC2)o1	19.09	40.62
Cc1c[nH]c(C(C)NC(=O)Cc2cccc(F)c2F)n1 (centres unmarked)	5.105	9.106
CCCNS(=O)(=O)c1ccc2c(c1)N(C)C(=O)CO2	-13.84	-15.62
Cc1nc2ccc(CO)cc2s1	-9.767	3.767
Cc1nc(C)c(CC(=O)NCCc2c[nH]cn2)s1	0.861	2.845
CCOC(=O)C1CCc2sc(N)c(C#N)c21 (centres unmarked)	11.42	25.84
CCc1nccn1CCCNC(=O)Cc1nonc1C	3.221	3.315
c1ccc(CN2CCCN(c3ccccn3)CC2)nc1	63.81	40.04
Cn1ncnc1CNS(=O)(=O)c1c(F)cccc1Br	-8.236	-4.111
O=C1CC[C@@H](CO)N1	20.61	6.575
COCCNCc1ccc(OC)c(OC)c1OC	-5.017	3.535
O=C(NCC(F)(F)F)C1CCCN(c2ncccn2)C1 (centres unmarked)	-16.8	-15.17
O=C(Cn1cccnc1=O)N(Cc1cccs1)C1CC1	2.553	13.08
CCN(Cc1ccccc1NCc1cc[nH]n1)C(C)=O	-11.39	-3.78
Nc1ccc2c(n1)NC(=O)CO2	-6.458	-1.332
CO[C@H]1CNCC1NC(=O)c1coc2ccccc12 (some centres unmarked)	-9.073	3.282
O=C(NCC1(O)CCCc2ccccc21)c1csnn1 (centres unmarked)	10.94	31.32
OCC1CCN(Cc2ccc(F)c3cccnc23)CC1	0.7709	-2.786
CNC(CO)c1cc(OC)ccc1Br (centres unmarked)	4.337	-4.561
COCC(N)c1ccc(F)c(F)c1 (centres unmarked)	-3.719	4.387
CN(Cc1ncc[nH]1)C(=O)Cc1cc(F)cc(F)c1	-9.754	7.901
CCC(C)NC(=O)c1cccc(CN)c1 (centres unmarked)	14.18	15.52
NC(=O)CC1CCN(Cc2cccc(F)c2)CC1	-14.98	-4.002
COc1cc(NC(=O)NCc2nncn2C)ccc1Br	31.95	54.48
COCCC(=O)Nc1ncn(Cc2ccc(Cl)cc2)n1	6.878	5.86
CC(C)NC(=O)Nc1cc(C(F)(F)F)c[nH]c1=O	110.5	46.81
CC(=O)NCC1CCNC1 (centres unmarked)	-7.573	-6.806
O=C(CCc1ccccc1)NC1CCNCC1	16.05	11.23
NCCc1nccc(-c2ccccc2)n1	9.874	37.12
CC1=CC[C@@H]2CN(C(=O)c3n[nH]c(N)c3Cl)C[C@@H]2C1	19.88	37.11
O=C(Oc1nsnc1N1CCCCC1)N1CCOCC1	62.67	61.6
N#Cc1ccc(N2Cc3cnn(CCO)c3C2)nc1	-8.635	-2.531
COCCc1noc(CNC(CCO)C(C)(C)C)n1 (centres unmarked)	-5.754	4.574
CC(C)(N)c1ncc[nH]1	5.06	5.985
COc1ncccc1C(=O)NCCc1cccs1	62.18	71.19
COc1cc(CNCCO)c(Br)cc1OCC(N)=O	10.7	8.146
CC(C)(O)CN1CCC(N)CC1	-6.474	-8.296
COc1ccccc1C(N)c1nccn1C (centres unmarked)	-3.956	30.54
CCN(Cc1ccoc1)C(=O)[C@@H](N)CC(C)C	18.1	34.94
Cc1cc(S(=O)(=O)NCCN)ccc1F	14.03	27
CCCOC1CCCN(c2ncc(C(N)=O)cc2Cl)C1 (centres unmarked)	0.6247	20.99
COCCn1ccnc1CN1CCC(CCO)CC1	3.142	10

Some entries from above, unchanged:

structure	A	B
N#Cc1ccc(N2Cc3cnn(CCO)c3C2)nc1	-8.635	-2.531
CCC(C)NC(=O)c1cccc(CN)c1 (centres unmarked)	14.18	15.52
CC(C)(N)c1ncc[nH]1	5.06	5.985
CCc1nccn1CCCNC(=O)Cc1nonc1C	3.221	3.315
COCCNCc1ccc(OC)c(OC)c1OC	-5.017	3.535
CCCNS(=O)(=O)c1ccc2c(c1)N(C)C(=O)CO2	-13.84	-15.62
O=C(NCC1CCS(=O)(=O)C1)c1cnccn1 (centres unmarked)	-22.02	-2.282